The target of assay [1] is T1, IPO5/importin-β3, endogenous in HEK293T cells (human (endogenous in HEK293T)) (UniProt O00410).
T1 sequence: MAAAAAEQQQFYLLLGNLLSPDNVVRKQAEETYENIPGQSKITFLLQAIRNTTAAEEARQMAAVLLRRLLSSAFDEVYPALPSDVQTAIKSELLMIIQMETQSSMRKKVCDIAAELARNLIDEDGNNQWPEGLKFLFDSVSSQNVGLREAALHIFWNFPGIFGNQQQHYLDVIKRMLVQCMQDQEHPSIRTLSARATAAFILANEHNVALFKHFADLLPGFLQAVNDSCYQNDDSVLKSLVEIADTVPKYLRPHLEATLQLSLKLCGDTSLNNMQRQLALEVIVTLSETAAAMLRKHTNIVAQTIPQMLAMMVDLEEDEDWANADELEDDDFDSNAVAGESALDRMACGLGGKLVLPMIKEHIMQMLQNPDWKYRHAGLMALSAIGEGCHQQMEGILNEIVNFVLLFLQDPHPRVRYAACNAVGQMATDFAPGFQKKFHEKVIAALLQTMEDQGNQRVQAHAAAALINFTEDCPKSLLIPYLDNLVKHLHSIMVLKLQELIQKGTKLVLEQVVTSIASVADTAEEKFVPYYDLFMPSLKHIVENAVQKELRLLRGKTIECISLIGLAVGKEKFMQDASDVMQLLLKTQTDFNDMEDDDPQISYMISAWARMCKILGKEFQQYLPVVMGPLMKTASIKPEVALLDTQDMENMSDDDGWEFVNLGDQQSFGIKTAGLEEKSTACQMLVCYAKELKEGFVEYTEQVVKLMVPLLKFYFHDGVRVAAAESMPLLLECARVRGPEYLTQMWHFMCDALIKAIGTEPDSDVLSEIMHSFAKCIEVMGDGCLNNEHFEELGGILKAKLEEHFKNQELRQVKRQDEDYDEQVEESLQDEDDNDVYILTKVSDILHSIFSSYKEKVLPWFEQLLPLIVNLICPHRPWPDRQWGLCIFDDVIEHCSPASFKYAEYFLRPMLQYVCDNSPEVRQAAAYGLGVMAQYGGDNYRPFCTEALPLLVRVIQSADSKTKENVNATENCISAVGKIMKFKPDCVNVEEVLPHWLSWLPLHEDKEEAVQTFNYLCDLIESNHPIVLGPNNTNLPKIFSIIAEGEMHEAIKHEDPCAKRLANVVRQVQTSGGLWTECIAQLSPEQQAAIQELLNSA
The experiment in a line: co-IP; competition: anti-GFP immunoprecipitation from HEK293T cells cotransfected for 30 h with IRF3-5D-GFP and Flag-FAF1 or a control plasmid; Western blot. A general note: A western blot detects proteins with antibodies after separation by electrophoresis.

Protein sequences, listed by entry. Tags and fused reporters are not part of them.
UniProt Q9UNN5: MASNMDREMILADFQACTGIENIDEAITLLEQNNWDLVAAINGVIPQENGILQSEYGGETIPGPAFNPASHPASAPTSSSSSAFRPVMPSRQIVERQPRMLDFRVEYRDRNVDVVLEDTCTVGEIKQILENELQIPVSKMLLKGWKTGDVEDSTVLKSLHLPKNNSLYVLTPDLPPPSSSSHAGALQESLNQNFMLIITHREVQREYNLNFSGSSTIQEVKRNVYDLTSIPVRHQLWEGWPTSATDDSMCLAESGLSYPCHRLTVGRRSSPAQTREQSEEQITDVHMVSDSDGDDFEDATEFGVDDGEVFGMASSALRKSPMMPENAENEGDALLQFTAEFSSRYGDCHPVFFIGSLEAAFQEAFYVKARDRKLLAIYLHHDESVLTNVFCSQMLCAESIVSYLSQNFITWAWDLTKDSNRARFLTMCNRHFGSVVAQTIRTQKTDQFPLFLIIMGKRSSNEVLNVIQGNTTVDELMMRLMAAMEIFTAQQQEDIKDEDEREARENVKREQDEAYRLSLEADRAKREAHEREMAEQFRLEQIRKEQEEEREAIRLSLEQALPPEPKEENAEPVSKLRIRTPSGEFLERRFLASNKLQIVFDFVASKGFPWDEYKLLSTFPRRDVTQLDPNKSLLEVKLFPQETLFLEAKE

In assay [2] the target is Flag-FAF1 (Fas-associated factor 1, wild type), in HeLa cells (human) (UniProt Q9UNN5). The experiment in a line: co-IP; anti-Flag immunoprecipitation from HeLa cells transfected with Flag or Flag-FAF1, untreated or poly(I·C) 10 μg/ml for 6 h; lysis buffer 150 mM NaCl, 50 mM Tris-HCl pH 7.4, 1 mM EDTA, 1% CHAPS; Western blot.
For assay [3], the target named is T2, GFP-tagged wild-type IRF3 (IRF3-WT-GFP), in HEK293T cells (UniProt Q14653).
T2 sequence: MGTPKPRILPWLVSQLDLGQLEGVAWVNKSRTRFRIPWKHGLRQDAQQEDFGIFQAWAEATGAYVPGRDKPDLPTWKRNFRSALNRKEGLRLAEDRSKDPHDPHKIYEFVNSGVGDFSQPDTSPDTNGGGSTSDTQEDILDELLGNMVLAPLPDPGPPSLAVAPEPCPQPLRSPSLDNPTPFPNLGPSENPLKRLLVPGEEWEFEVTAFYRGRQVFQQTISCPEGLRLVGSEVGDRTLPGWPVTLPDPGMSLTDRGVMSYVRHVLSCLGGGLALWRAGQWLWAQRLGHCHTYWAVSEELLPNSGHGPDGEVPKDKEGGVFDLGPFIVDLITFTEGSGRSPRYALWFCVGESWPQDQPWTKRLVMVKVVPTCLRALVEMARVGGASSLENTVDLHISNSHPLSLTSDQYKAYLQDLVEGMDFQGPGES
The experiment in a line: co-IP; anti-GFP immunoprecipitation from HEK293T cells transfected for 30 h with IRF3-WT-GFP or IRF3-5D-GFP, with or without Flag-RIG-I N; lysis buffer 150 mM NaCl, 50 mM Tris-HCl pH 7.4, 1 mM EDTA, 1% CHAPS; Western blot.

Results are given in words; binding and its absence hold for the method and conditions named. Binding seen in cells or lysates may run through a third protein. Some binding calls cover weakened binding; strength is not graded here. For part of these data: Where a sequence is shown, tags or fusion partners need not be part of it.

In the case of “Flag-FAF1 (Fas-associated factor 1, wild type), in HEK293T cells (from UniProt Q9UNN5 1-650)”, in assay [1], the binding entry is recorded as “binds”.

B1: IPO5/importin-β3, endogenous in HeLa cells (protein, UniProt O00410 1-1097)
chain: T1 sequence
On to B1, for which the binding entry in assay [2] was “binds”.

B2: IPO5/importin-β3, endogenous in HEK293T cells (protein, UniProt O00410 1-1097)
chain: T1 sequence
As to B2, the binding entry in assay [3] is given as “binds”.

These data come from publication PMC4800795.
